Experimental data from patent US20240041876A1, “PHARMACEUTICAL COMPOSITION FOR PREVENTION OR TREATMENT OF DEGENERATIVE BRAIN DISEASES COMPRISING ABEMACICLIB AS ACTIVE INGREDIENT” (priority 2020, published 2024).
For at least one compound, name, drawing or mass did not settle the structure.

Experiments:
[1] = tested on: 5×FAD mice; experiment: Tau phosphorylation in 5×FAD mice (immunohistochemistry); assay type: in vivo, mouse; conditions: 3-month-old 5×FAD mice; 30 mg/kg ip daily for 2 weeks; compared to vehicle
[2] = tested on: PS19 mice; experiment: Cognitive function in tau-overexpressing PS19 mice (Y maze, NOR); assay type: in vivo, mouse; conditions: 6-month-old PS19 mice; 30 mg/kg intraperitoneal or 60 mg/kg oral daily for 14 days
[3] = tested on: AKT signaling in BV2 microglia; experiment: AKT dependence: MK2206, abemaciclib, then LPS in BV2 microglia (RT-PCR); assay type: cell-based; conditions: MK2206 10 μM 30 minutes, abemaciclib 5 μM 30 minutes, LPS 1 μg/ml 5 hours
[4] = tested on: TLR4 signaling in BV2 microglia; experiment: TLR4 dependence: TAK-242, abemaciclib, then LPS in BV2 microglia (RT-PCR); assay type: cell-based
[5] = tested on: 5×FAD mice; experiment: Cognition and memory in 5×FAD mice (Y maze, NOR); assay type: in vivo, mouse; conditions: 30 mg/kg ip daily for 14 days
[6] = tested on: p-STAT3 in BV2 microglia; experiment: p-STAT3 in cytosolic and nuclear fractions of LPS-treated BV2 microglia (Western blotting); assay type: cell-based; conditions: abemaciclib 5 μM 30 minutes then LPS 5.5 hours
[7] = tested on: 5×FAD mice; experiment: Abemaciclib versus donepezil: astrocyte activity in 5×FAD mice (anti-GFAP, anti-6E10); assay type: in vivo, mouse; conditions: abemaciclib 30 mg/kg or donepezil 1 mg/kg intraperitoneal daily for 14 days
[8] = tested on: 5×FAD mice; experiment: Dendritic spine number in 5×FAD mice (Golgi staining); assay type: in vivo, mouse; conditions: 30 mg/kg ip, compared to the control group
[9] = tested on: wild-type mice; experiment: LPS-induced cognitive decline in wild-type mice (Y maze, NOR); assay type: in vivo, mouse; conditions: 30 mg/kg intraperitoneal daily for 7 days, LPS 250 μg/ml 30 minutes later
[10] = tested on: p-AKT / AKT in BV2 microglia; experiment: p-AKT and AKT Western blotting in LPS-treated BV2 microglia; assay type: cell-based; conditions: abemaciclib 5 μM 45 minutes then LPS 1 μg/ml 45 minutes
[11] = tested on: LPS-induced pro-inflammatory cytokines in BV2 microglia; experiment: LPS-induced pro-inflammatory cytokine mRNA in BV2 microglia (RT-PCR); assay type: cell-based
[12] = tested on: wild-type mice; experiment: LPS-induced microglia/astrocyte activation and cytokines in wild-type mice (immunohistochemistry); assay type: in vivo, mouse; conditions: 30 mg/kg ip daily for 3 days, then LPS 10 mg/kg ip 6 hours
[13] = tested on: 5×FAD mice; experiment: Amyloid plaques (Aβ) in 5×FAD mice (anti-4G8 immunohistochemistry); assay type: in vivo, mouse; conditions: 3-month-old 5×FAD mice; 30 mg/kg ip daily for 2 weeks; compared to vehicle
[14] = tested on: IL-4, IL-10 and MRC-1 mRNA in BV2 microglia; experiment: Anti-inflammatory cytokine mRNA in LPS-treated BV2 microglia (Q-PCR); assay type: cell-based
[15] = tested on: 5×FAD mice; experiment: Microglia/astrocyte activation and IL-1β in 5×FAD mice (immunohistochemistry); assay type: in vivo, mouse; conditions: 30 mg/kg ip daily for 2 weeks
[16] = tested on: primary microglia; experiment: LPS-induced pro-inflammatory cytokines in primary microglia (real-time PCR); assay type: cell-based, mouse; conditions: abemaciclib 5 μM 30 minutes then LPS 200 ng/ml 5.5 hours
[17] = tested on: 5×FAD mice; experiment: Abemaciclib versus donepezil: cognitive function in 5×FAD mice (Y maze, NOR); assay type: in vivo, mouse
[18] = tested on: primary astrocytes; experiment: LPS-induced pro-inflammatory cytokines in primary astrocytes (real-time PCR); assay type: cell-based, mouse; conditions: abemaciclib 5 μM 30 minutes then LPS 200 ng/ml 5.5 hours
[19] = abemaciclib 5 μM 30 minutes then LPS 1 μg/ml 5 hours, compared with vehicle
[20] = LPS 1 μg/ml then abemaciclib 5 μM for 5.5 hours, mRNA, RT-PCR
[21] = LPS 1 μg/mL 30 minutes then abemaciclib 5 μM 5.5 hours
[22] = pretreatment with abemaciclib 5 μM 30 minutes then LPS 1 μg/mL 5.5 hours

CCN1CCN(Cc2ccc(Nc3ncc(F)c(-c4cc(F)c5nc(C)n(C(C)C)c5c4)n3)nc2)CC1 [abemaciclib]
phosphorylated tau protein detected by AT100-antibody in the cerebral cortex [1]: significantly reduced | tau phosphorylation detected by anti-AT180 antibody in the cerebral cortex [1]: significantly reduced | tau phosphorylation detected by anti-AT180 antibody in the hippocampus [1]: significantly reduced | tau phosphorylation detected by anti-Tau-5 antibody in the cerebral cortex [1]: significantly reduced | tau phosphorylation detected by anti-Tau-5 antibody in the hippocampus [1]: significantly reduced | recognition memory function (NOR test) [2]: improved | spatial perception ability (Y maze) [2]: improved | LPS-induced COX-2 mRNA level, MK2206, abemaciclib and LPS versus other groups [3]: not significantly different | LPS-induced IL-1beta mRNA level, MK2206, abemaciclib and LPS versus other groups [3]: not significantly different | LPS-induced iNOS mRNA level, MK2206, abemaciclib and LPS versus other groups [3]: not significantly different | iNOS mRNA level, combination of TAK-242 and abemaciclib ([4]; TAK-242 500 nM + abemaciclib 5 μM + LPS, compared with LPS and abemaciclib or TAK-242 and LPS): no significant change | LPS-induced COX-2 mRNA level [4, 19]: significantly reduced | LPS-induced IL-1β mRNA level [4, 19]: significantly reduced | LPS-induced IL-6 mRNA level [4, 19]: significantly reduced | LPS-induced iNOS mRNA level [4, 19]: significantly reduced | short-term memory (Y maze) ([5]; day 15): improved | long-term memory (NOR test) ([5]; day 17): improved | p-STAT3 levels in the cytosol [6]: almost no change | p-STAT3 levels in the nucleus [6]: significantly reduced | astrocyte activation and proliferation of astrocytes in the cerebral cortex [7]: inhibited | number of astrocytes directly interacting with amyloid plaques [7]: reduced | number of dendritic spines in the cerebral cortical region [8]: increased | number of dendritic spines in the hippocampal AO region [8]: increased | LPS-mediated spatial memory impairment (Y maze) ([9]; day 8): improved | LPS-mediated cognitive memory impairment (NOR test) ([9]; day 9): improved | level of p-AKT induced by LPS [10]: significantly reduced | total expression level of AKT protein [10]: did not affect | production of pro-inflammatory cytokine COX-2 [11, 20]: effectively inhibited | production of pro-inflammatory cytokine IL-1beta [11, 20]: effectively inhibited | production of pro-inflammatory cytokine IL-6 [11, 20]: effectively inhibited | production of pro-inflammatory cytokine iNOS [11, 20]: effectively inhibited | production of proinflammatory cytokines, acting both before and after induction of an inflammatory response ([11]; abemaciclib 5 μM before or after LPS 1 μg/ml): inhibit the production of proinflammatory cytokines | LPS-induced GFAP in the cortex [12]: significantly reduced | LPS-induced IL-1β levels in the cortex [12]: significantly reduced | LPS-induced IL-1β levels in the hippocampus CA1 region [12]: significantly reduced | LPS-induced IL-6 in the cortex [12]: significantly reduced | LPS-induced Iba-1 in the cortex [12]: significant reduction | reduction in GFAP in the hippocampus [12]: less than that of the cortex | reduction of Iba-1 in the hippocampus [12]: weaker than that of the cortex | level of amyloid plaques (Aβ) in the CA1 region [13]: significantly reduced | IL-4 mRNA level [14, 21]: greatly increased | IL-10 mRNA level [14, 21]: greatly increased | MRC-1 mRNA level [14, 21]: greatly increased | IL-4 mRNA level [14, 22]: significantly increased | IL-10 mRNA level [14, 22]: significantly increased | MRC-1 mRNA level [14, 22]: significantly increased | Iba-1 in the cortex [15]: significantly reduced | Iba-1 in the hippocampus [15]: significantly reduced | decrease in GFAP in the hippocampus [15]: less than that of the cortex | GFAP, marker of astrocyte activation (cortex) ([15]; compared to the control group): significantly reduced | IL-1β in the cortex ([15]; compared to the vehicle-treated group): significantly reduced | levels of pro-inflammatory cytokines induced by LPS [16]: significantly reduced | short-term memory (Y maze) ([17]; abemaciclib 30 mg/kg or donepezil 1 mg/kg intraperitoneal daily for 14 days, day 15): improved | long-term memory (NOR test) ([17]; abemaciclib 30 mg/kg or donepezil 1 mg/kg intraperitoneal daily for 14 days, day 16-17): improved | improvement of short-term and long-term memory relative to donepezil ([17]; abemaciclib 30 mg/kg versus donepezil 1 mg/kg intraperitoneal daily for 14 days): comparable to donepezil | COX-2 mRNA level [18]: reduced | IL-1β mRNA level [18]: reduced | IL-6 mRNA level [18]: reduced | TNF-α mRNA level [18]: reduced | iNOS mRNA level [18]: reduced
